Values from PubChem BioAssay AID1259275 (Sanger Institute, 2017).
The deposit covers 794 reagents; this is a random part of them. Of all reagents, 13 (1.6%) got an active call. 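Calls mark knock-downs lethal by themselves, not drug synergy; drugs went in a day after transfection, with DMSO as vehicle.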 Viability is capped at 1. Not all columns of the deposit are shown. The record does not give: the amount of reagent, the time to read-out.

Purpose: 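Knock-downs that cut viability on their own or combined with BYL719, cetuximab or trametinib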 (primary screen)
System: COLO320HSR human colorectal cancer cells
Reagents: siRNA pool against human genes
Conditions: anchor drug added one day after transfection: BYL719 at 1 µM, cetuximab at 5 µg/ml or trametinib at 10 nM; DMSO as vehicle arm
Measurement: 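Viability averaged over replicates as a fraction of the non-targeting pool, a robust z-score for knock-down alone, and synergy scores with BYL719 (1 µM), cetuximab (5 µg/ml) or trametinib (10 nM)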
Direction: robust z-score, siRNA alone: higher = more viable cells; strongly negative means essential; viability, knock-down alone (DMSO): higher = more viable cells; synergy score with BYL719: higher = stronger combined killing with drug
Call rule: 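Essential means the knock-down by itself gives a robust z-score lower than -3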
Meaning of the calls: active = essential (siRNA alone); inactive = no change (siRNA alone)

gene symbol | robust z-score, siRNA alone | viability, knock-down alone (DMSO) (fraction of control) | synergy score with BYL719 | Call
ACO1 | -2.79 | 0.682 | 0.0637 | inactive
CDK16 | 0.726 | 1 | -0.0874 | inactive
ATR | 0.403 | 0.971 | -0.122 | inactive
PHKG1 | 0.463 | 0.976 | -0.0558 | inactive
BLK | 0.726 | 1 | -0.236 | inactive
CIB2 | 0.01 | 0.935 | -0.00252 | inactive
CDK4 | 0.726 | 1 | 0.0121 | inactive
MAST1 | 0.726 | 1 | -0.274 | inactive
PAK3 | 0.373 | 0.968 | 0.0743 | inactive
CHKA | -0.751 | 0.867 | 0.0489 | inactive
ELF3 | -2.59 | 0.701 | -0.0867 | inactive
PRKAR1B | -0.562 | 0.884 | -0.0314 | inactive
ALPK3 | 0.294 | 0.961 | -0.185 | inactive
PMVK | -0.646 | 0.876 | -0.135 | inactive
STK10 | 0.726 | 1 | -0.238 | inactive
MAP4K1 | 0.726 | 1 | -0.0334 | inactive
CRIM1 | -0.227 | 0.914 | -0.136 | inactive
ALDH18A1 | 0.488 | 0.978 | -0.0525 | inactive

Continued (3 carried over from the part before).
gene symbol | robust z-score, siRNA alone | viability, knock-down alone (DMSO) (fraction of control) | synergy score with BYL719 | Call
MAP4K1 | 0.726 | 1 | -0.0334 | inactive
CRIM1 | -0.227 | 0.914 | -0.136 | inactive
ALDH18A1 | 0.488 | 0.978 | -0.0525 | inactive
PAK2 | -0.696 | 0.872 | 0.00529 | inactive
MAPK8 | 0.726 | 1 | -0.183 | inactive
IP6K2 | 0.644 | 0.993 | -0.117 | inactive
AKAP9 | -1.1 | 0.835 | -0.175 | inactive
MAPK9 | 0.726 | 1 | -0.185 | inactive
PRAG1 | -1.18 | 0.828 | -0.0261 | inactive
HUNK | 0.726 | 1 | 0.0193 | inactive
GNAS | 0.726 | 1 | -0.0141 | inactive
LCK | -0.209 | 0.916 | -0.0542 | inactive
STK38 | -1.79 | 0.773 | -0.0396 | inactive
NEK7 | -0.268 | 0.91 | -0.235 | inactive
ETNK1 | 0.726 | 1 | -0.113 | inactive
FGFR2 | 0.726 | 1 | -0.0186 | inactive
SGK3 | -0.153 | 0.921 | -0.0757 | inactive
PEAK1 | -0.311 | 0.906 | -0.109 | inactive
EFNA3 | -1.1 | 0.835 | 0.0218 | inactive
WEE1 | -3.38 | 0.629 | -0.00504 | active
NEK5 | 0.726 | 1 | -0.0369 | inactive
STYK1 | -0.175 | 0.919 | -0.2 | inactive
CDKL2 | -1.11 | 0.835 | 0.0481 | inactive
MAPK4 | -0.177 | 0.918 | -0.0763 | inactive
WNK1 | -0.164 | 0.92 | -0.034 | inactive
LATS2 | 0.0538 | 0.939 | -0.0596 | inactive
NME7 | 0.586 | 0.987 | -0.12 | inactive
EPHA10 | -1.31 | 0.816 | -0.146 | inactive
STK33 | -0.194 | 0.917 | 0.0269 | inactive
MAP4K2 | 0.398 | 0.97 | 0.0277 | inactive
PIK3CG | -0.53 | 0.887 | -0.00288 | inactive
EXOSC10 | -0.11 | 0.925 | -0.0692 | inactive
IRAK3 | -1.46 | 0.803 | -0.0684 | inactive
CDK11B | -0.537 | 0.886 | -0.14 | inactive
ALPK2 | 0.484 | 0.978 | -0.188 | inactive
